According to patent US11167015B2, “Arginine and its use as a T cell modulator” (INSTITUTE FOR RESEARCH IN BIOMEDICINE, priority 2016, dated 2021):

Assays:
activated CD4+ T cells = experiment: IL-2 withdrawal assay and assessment of cell viability, CD4+ T cells; assay type: cell-based, human; conditions: metabolites 3 mM, except for spermidine 0.1 mM; 5 days after IL-2 withdrawal
Description: Naïve CD4 T cells were activated with plate-bound CD3 and CD28 antibodies. 48 h after activation IL-2 was added to culture media (500 U ml^−1). After a further 3 days of culturing, cells were washed, counted and equal cell numbers were plated in medium devoid of IL-2. The withdrawal medium was no longer supplemented with e.g. L-arginine. Cell viability was assessed with annexin V.

human naïve CD4+ T cells = experiment: kinetic metabolome analysis of activated T cells; assay type: cell-based; conditions: added to the culture medium at the same concentration as L-arginine (3 mM)

NCCC[C@H](N)C(=O)O [L-ornithine, reference compound]
survival of activated CD4+ T cells in the absence of exogenous cytokines (activated CD4+ T cells): had no effect
effects on metabolism (human naïve CD4+ T cells): only had minor effects
